Measured values: publication doi:10.1101/2020.01.21.914333
No constants are given. Whether binding was seen depends on the method and setting. In cells and extracts the contact can be indirect. Some entries that bind do so weakly or less than the wild type.

The chains behind the UniProt entries cited, without tags or fusion partners. Where a name states a change or a piece, a line headed by the entry shows the natural chain unless it says otherwise.
UniProt P60881, whole entry: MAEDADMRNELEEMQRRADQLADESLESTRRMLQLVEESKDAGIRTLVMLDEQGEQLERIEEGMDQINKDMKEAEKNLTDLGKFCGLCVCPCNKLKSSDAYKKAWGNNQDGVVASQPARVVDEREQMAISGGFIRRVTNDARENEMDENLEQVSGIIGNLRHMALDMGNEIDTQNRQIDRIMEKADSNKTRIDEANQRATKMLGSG
UniProt Q8IUH5, whole entry: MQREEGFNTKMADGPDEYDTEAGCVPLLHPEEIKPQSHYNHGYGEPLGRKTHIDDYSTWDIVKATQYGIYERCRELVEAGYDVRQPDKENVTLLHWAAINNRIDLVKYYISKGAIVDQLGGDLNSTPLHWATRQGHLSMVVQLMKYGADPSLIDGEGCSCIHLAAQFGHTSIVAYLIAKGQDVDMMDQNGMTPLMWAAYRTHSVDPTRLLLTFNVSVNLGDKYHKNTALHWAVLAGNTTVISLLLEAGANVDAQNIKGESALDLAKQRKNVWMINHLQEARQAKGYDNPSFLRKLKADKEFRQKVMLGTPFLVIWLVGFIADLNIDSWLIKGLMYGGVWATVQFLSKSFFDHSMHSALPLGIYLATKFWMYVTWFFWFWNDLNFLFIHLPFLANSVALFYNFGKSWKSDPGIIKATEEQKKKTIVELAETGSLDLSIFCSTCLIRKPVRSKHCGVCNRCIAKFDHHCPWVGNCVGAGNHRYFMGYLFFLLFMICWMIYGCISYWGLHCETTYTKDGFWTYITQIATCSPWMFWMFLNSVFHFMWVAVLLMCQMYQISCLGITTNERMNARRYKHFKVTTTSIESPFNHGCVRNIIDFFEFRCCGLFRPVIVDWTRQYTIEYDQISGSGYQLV

Experiments:
Assay in all cases: co-IP
EGFP-SNAP25b P117G (rat) = EGFP-SNAP25b P117G (rat) (UniProt P60881)
EGFP-SNAP25b WT (rat) = EGFP-SNAP25b WT (rat) (UniProt P60881)
[1] = biological target: EGFP-SNAP25b Δ(101-108) (rat) (UniProt P60881)

binding (EGFP-SNAP25b P117G (rat)): no binding
binding (EGFP-SNAP25b WT (rat)): binds
binding [1]: binds
Substance: HA-zDHHC17 (from UniProt Q8IUH5 1-632) (enzyme)
